Test results taken from patent US20150342956A1, “METHODS OF TREATMENT FOR CONDITIONS MEDIATED BY SUBSTANCE P” (Beller Pharmaceuticals LLC, priority 2014, published 2015).
For at least one compound, name, drawing or mass did not settle the structure.

Test system: INS symptoms
Assay: Exemplary cases of INS: patient-ranked symptom severity (1-10) and GLI score before and after treatment
Assay type: in vivo, human
Conditions: Patient one; before treatment 2-3 times each night; omeprazole 20 mg twice a day, one week
Description: This example describes three exemplary cases of INS. Patients were given a list of INS symptoms and asked to rank those present on a scale of 1-10, with 10 indicating most severe. Treatment was provided (gabapentin, omeprazole, and/or immunotherapy).
Patient two is a person who presented complaining of cough, runny nose, and sneezing. […] They were started on gabapentin (900 mg) and returned in two weeks for re-evaluation. They reported 60% global level of improvement with gabapentin. They were also started on immunotherapy for its long-lasting benefits. They returned for further evaluation three months later to report they had improved by 85% and had stopped the gabapentin more than a month prior to their last visit. Their symptoms were scored for severity from 1 (mild) to 10 (severe) on initial evaluation, after gabapentin, and after three months of immunotherapy. Their scores are below:
Patient three is a person who presented complaining of cough, post nasal drip, and runny nose. […] The patient was started on immunotherapy and returned for follow-up after four months of immunotherapy. Due to their busy schedule the patient had missed several shot visits and their immunotherapy doses were never increased to the maximum, maintenance dose. They were receiving doses at 1/10th of the maintenance dose. They reported 40% improvement. […]

COc1ccc2[nH]c([S+]([O-])Cc3ncc(C)c(OC)c3C)nc2c1 (stereo not shown) [Omeprazole, omeprazole]
Bedwetting occurrence: none since starting omeprazole
